# Measured values taken from PubChem BioAssay AID1347076 (National Center for Advancing Translational Sciences (NCATS), 2019).
# Screen size: about 400,000 compounds; about 13,000 (3.2%) were called active. The inconclusive results got no clear call from the source; some entries with a clear call stand among them for comparison. Calls come from the whole dose curve; as a rule, active = well fitted cell-killing curve with a large enough effect; inconclusive = small, poorly fitted or top-dose-only effect, or effect the other way; inactive = flat fitted curve, though single readings scatter. Potencies beside an inconclusive call are fits to weak or partial responses and may not hold up.
# Test: qHTS assay for MDR1-selective chemotherapeutics: Primary screen using the drug-selected MDR subline cells KB-V1; note: nearly all actives have a fitted effect of over 60% in size
# Details: KB-V1 MDR cells viability, CellTiter-Glo, 72 h; activity change, negative = cytotoxicity: at 46.1 µM (top of the series)
# Method in brief: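 KB-V1 MDR subline cells in DMEM (phenol-red free, 10% FBS) exposed to compounds in qHTS concentration series for 72 h at 37 degrees C. Viability read by CellTiter-Glo luminescence; concentration-effect curves fitted after normalization and correction.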
# % is set by controls: 0 for no effect and ±100 for the full control effect; potency is the fitted concentration of half-maximal effect.
SMILES,Potency,"activity change, negative = cytotoxicity"
CC(C)C(=O)Nc1ccc2nc(SCC(=O)N3CCc4ccccc43)sc2c1,"inconclusive: 25.9 µM [cytotoxic, single point]",–
Cc1nnc(-c2cnn(-c3ccccc3)c2N)n1Cc1cccc(C(F)(F)F)c1,"inconclusive: 13 µM [cytotoxic, partial curve]",–
COc1ccc(-c2csc3ncnc(Nc4cc(OC)cc(OC)c4)c23)cc1,–,inactive: 3%
COc1ccc(C2=NN(C(=O)CN3CCCC3)C(c3ccc(OC)cc3)C2)cc1 (centres undefined),"inconclusive: 11.6 µM [cytotoxic, partial curve, poor fit]",–
CC(C)c1ccc(NC(=O)Cn2cc(S(=O)(=O)Cc3ccccc3Cl)c3ccccc32)cc1,"inconclusive: 29.1 µM [cytotoxic, single point]",–
COc1ccccc1CNC(=O)c1ccc2c(c1)N(Cc1c(F)cccc1Cl)C(=O)CS2,–,inactive: -0.618%
O=C(NN=C1CCCC1)c1n[nH]c2c1CCC2,"inconclusive: 9.2 µM [cytotoxic, partial curve, poor fit]",–
Cc1c(CN2CCN(c3cccc(C(F)(F)F)c3)CC2)c(=O)n(-c2ccccc2)n1C,–,inactive: -4.62%
O=C(NC(=S)N1CCc2ccccc21)c1ccccc1Br,"inconclusive: 29.1 µM [cytotoxic, single point]",–
O=S(=O)(Cc1ccccc1)NC1c2ccccc2Oc2ccccc21,"inconclusive: 20.6 µM [rising, single point]",–
Cc1ccc(NC(=O)COC(=O)CC2CCCC2)cc1F,–,inactive: -0.2%
Cc1ccc(C(=O)Cn2nnc3ccccc32)cc1C,"inconclusive: 25.9 µM [cytotoxic, single point]",–
CCN(C(=O)c1cccs1)c1nnc(-c2ccncc2)s1,active: 18.4 µM,–
COCCn1c(-c2ccco2)csc1=Nc1cccnc1,"inconclusive: 16.4 µM [cytotoxic, single point]",–
Cc1ccc(S(=O)(=O)N2CCOCC2)cc1C(=O)OCC(=O)N1CCCCC1,active: 18.4 µM,–
O=C(Nc1ncccc1O)c1ccc(S(=O)(=O)N2CCCCCC2)cc1,"inconclusive: 16.4 µM [cytotoxic, partial curve]",–
COc1ccccc1N1CCN(C(=O)c2cc(=O)c3cc(C)ccc3o2)CC1,–,inactive: -19.3%
O=C(c1ccc2ncsc2c1)N1CCN(c2cccc(C(F)(F)F)c2)CC1,"inconclusive: 8.2 µM [cytotoxic, partial curve, poor fit]",–
Cc1ccc(C)c(OCc2nc3ccccc3[nH]2)c1,"inconclusive: 2.91 µM [rising, partial curve, poor fit]",–
COc1cccc(CCc2ccccc2OCC(CN(C)C)OC(=O)CCC(=O)O)c1 (centres undefined),–,inactive: -6.53%
O=C(NC1CCCCCC1)C1CCN(S(=O)(=O)c2cnc[nH]2)CC1,"inconclusive: 29.1 µM [rising, partial curve, poor fit]",–
CCCCOc1ccc(C(=O)Nc2ccc(C)cc2[N+](=O)[O-])cc1,"inconclusive: 25.9 µM [cytotoxic, single point]",–
CCOc1ccccc1NS(=O)(=O)c1ccc(OC)c(OC)c1,active: 25.9 µM,–

SMILES,Potency,"activity change, negative = cytotoxicity"
COc1ccccc1NC(=O)CSc1nnc(-c2ccoc2C)n1C,"inconclusive: 20.6 µM [cytotoxic, single point]",–
NC(=O)c1sc2nccc(Nc3ccccc3)c2c1N,"inconclusive: 23.1 µM [cytotoxic, partial curve]",–
CCNC(=S)N/N=C/c1ccc(-c2ccccc2)o1,"inconclusive: 18.4 µM [cytotoxic, single point]",–
CN1CCN(C(=O)c2cc3c(c(-c4cccc(-c5cc6ccccc6o5)c4)n2)[C@@H](CCO)N(S(=O)C(C)(C)C)C3)CC1 (some centres undefined),–,inactive: 24.8%
CCOC(=O)c1[nH]c(C)c(/C(O)=C2\C(=O)C(=O)N(CCN3CCOCC3)C2c2cccs2)c1C (centres undefined),"inconclusive: 31.6 µM [cytotoxic, single point]",–
O=C(Nc1ccccc1)NC1(C(=O)NCc2ccco2)CCCCC1,"inconclusive: 20.6 µM [cytotoxic, partial curve, poor fit]",–
Cc1nc(N2CCOCC2)nc(N2CCCCC2C)c1[N+](=O)[O-] (centres undefined),"inconclusive: 32.6 µM [cytotoxic, single point]",–
O=C(O)COc1ccccc1/C=C1\SC(=Nc2ccc(F)cc2)N(c2ccc(F)cc2)C1=O,"inconclusive: 29.1 µM [rising, single point]",–
Cc1cc(C)c(NC(=O)CN(C)C(=O)c2ccc(OCc3ccccc3)cc2)c(C)c1,"inconclusive: 29.1 µM [rising, single point]",–
Cc1ccc(NC(=O)CN(C)C(=O)Cn2ncc(Cl)c(Cl)c2=O)cc1,"inconclusive: 29.1 µM [cytotoxic, single point]",–
c1cn2c(NC3CCCC3)c(-c3ccc(N4CCOCC4)cc3)nc2cn1,–,inactive: 20.8%
COc1cc(/C=N\NC(=O)c2cccc(Cl)c2)ccc1Oc1ccc([N+](=O)[O-])cn1,"inconclusive: 18.4 µM [cytotoxic, partial curve]",–
CC(=O)Nc1ccc(C(=O)OCc2ccc(Br)cc2)cc1,active: 18.4 µM,–
COc1ccccc1CN1CCN(Cc2nc(Cc3ccccc3)no2)CC1,"inconclusive: 5.17 µM [cytotoxic, partial curve]",–
COc1ccc(-c2cn3ccc(C)cc3n2)cc1,"inconclusive: 25.9 µM [cytotoxic, single point]",–
COc1ccc(-c2cnc3c(NC(C)=O)cc(-c4ccccc4OC)cn23)cc1OC,"inconclusive: 29.1 µM [cytotoxic, single point]",–
CC1(C)Cc2nc3sc4c(=O)n(CC(=O)NCc5ccccc5)cnc4c3cc2CO1,active: 3.66 µM,–
O=C(NC1CCCCC1)c1cc(-n2cnnc2)ccc1Cl,–,inactive: -1.74%
COc1ccc(C(=O)C2CCCN(C(=O)c3ccc4nccnc4c3)C2)c(C)c1 (centres undefined),–,inactive: -2.79%
CC1CN(S(=O)(=O)c2ccc(C(=O)Nc3nnc(-c4ccco4)o3)cc2)CC(C)O1 (centres undefined),"inconclusive: 23.1 µM [cytotoxic, single point]",–
CCCNC(=O)c1cc(C2CCCN(C(=O)c3ccc(OC)cc3)C2)on1 (centres undefined),–,inactive: -1.93%
CCOC(=O)c1ccccc1NC(=O)CN(c1ccccc1OC)S(C)(=O)=O,"inconclusive: 10.3 µM [cytotoxic, partial curve, poor fit]",–
O=C(c1cc([N+](=O)[O-])cc([N+](=O)[O-])c1)N1CCN(Cc2ccc3c(c2)OCO3)CC1,"inconclusive: 18.4 µM [cytotoxic, single point]",–

SMILES,Potency,"activity change, negative = cytotoxicity"
Nc1nnc(SCC(=O)Nc2ccccc2N2CCOCC2)s1,"inconclusive: 18.4 µM [rising, single point]",–
Cc1cc(N)n2ncc(-c3ccccc3)c2n1,–,inactive: -8.22%
Cn1c2ccccc2c2cnn(CC(=O)NCCCN3CCN(c4ccccc4F)CC3)c(=O)c21,–,inactive: 1.2%
Cc1ccc(C(=O)N(C)Cc2ccc(N3CCOCC3)cc2)cc1S(=O)(=O)NCc1ccccc1,"inconclusive: 20.6 µM [cytotoxic, single point]",–
CC(NC1CCCCC1)C(=O)NN=C(c1ccccc1)c1ccccc1 (centres undefined),"inconclusive: 16.4 µM [cytotoxic, partial curve]",–
O=C(c1ccc(Cl)c(Cl)c1)N1CCC(=O)N(C(COCc2ccc(Cl)cc2)Cc2ccccc2)CC1 (centres undefined),"inconclusive: 0.92 µM [cytotoxic, full curve, poor fit]",–
CC(=O)c1ccc(N2CCN(C(=O)Nc3ccc(C(C)C)cc3)CC2)cc1,"inconclusive: 3.26 µM [cytotoxic, full curve]",–
Cc1ccc(-c2csc(NC(=S)NC(=O)/C=C/c3ccco3)n2)cc1,active: 3.26 µM,–
Cc1[nH]c(C)c(S(=O)(=O)N(C)Cc2ccccc2)c1C(=O)N1CCCC1,"inconclusive: 9.2 µM [rising, partial curve]",–
O=C(Nc1ccccc1)N(Cc1cccc(Cl)c1)c1ccccn1,"inconclusive: 29.1 µM [cytotoxic, single point]",–
COc1ccc(CCNC(=O)c2ccc3c(c2)ncn3-c2ccc(C(C)C)cc2)cc1OC,"inconclusive: 18.4 µM [cytotoxic, single point]",–
C[C@@H]1CCC2[C@](C)(CO)[C@@H](O)CC[C@]2(C)[C@@]12C[C@](CO)(CC(=O)O)CO2 (some centres undefined),"inconclusive: 18.4 µM [rising, partial curve, poor fit]",–
O=C(O)c1ccc(Cl)cc1Nc1nc2cc(Cl)ccc2o1,active: 16.4 µM,–
CC(C)Oc1ccc(Cl)cc1Nc1nc(NCCO)nc(N2CCCC2)n1,"inconclusive: 29.1 µM [cytotoxic, single point]",–
C=CCN(c1ccccc1)S(=O)(=O)c1cccc(C(=O)NCc2ccncc2)c1,"inconclusive: 13 µM [cytotoxic, partial curve]",–
CC(=O)Nc1ccccc1N(CC(O)Cn1c2ccccc2c2ccccc21)S(=O)(=O)c1ccc(C)cc1 (centres undefined),"inconclusive: 5.8 µM [cytotoxic, partial curve]",–
CCN(CC)S(=O)(=O)c1ccc(OCC(=O)NCc2ccco2)cc1,–,inactive: -3.81%
CN(NC(=O)COc1ccccc1)C1=NS(=O)(=O)c2ccccc21,–,inactive: -7.48%
O=C(Nc1ccccc1)N1CCn2c1nc1ccccc12,–,inactive: 3.66%
CCN(CC)c1ccc(/C=N/NC(=S)NCc2ccco2)cc1,"inconclusive: 23.1 µM [cytotoxic, single point]",–
CC(C)(C)[C@H]1C=C(C(=O)N2CCOCC2)O[C@@H](OCc2ccc(CO)cc2)C1,–,inactive: -7.33%
Cc1ccccc1NC(=O)c1c(-c2ccccc2)noc1C,–,inactive: -3.07%
Cc1ccc2c(c1)C(c1ccccc1)N(C(=O)CC(C)C)CC(=O)N2 (centres undefined),–,inactive: 0%

# Six consecutive records from above, for reference:
SMILES,Potency,"activity change, negative = cytotoxicity"
C=CCN(c1ccccc1)S(=O)(=O)c1cccc(C(=O)NCc2ccncc2)c1,"inconclusive: 13 µM [cytotoxic, partial curve]",–
CC(=O)Nc1ccccc1N(CC(O)Cn1c2ccccc2c2ccccc21)S(=O)(=O)c1ccc(C)cc1 (centres undefined),"inconclusive: 5.8 µM [cytotoxic, partial curve]",–
CCN(CC)S(=O)(=O)c1ccc(OCC(=O)NCc2ccco2)cc1,–,inactive: -3.81%
CN(NC(=O)COc1ccccc1)C1=NS(=O)(=O)c2ccccc21,–,inactive: -7.48%
O=C(Nc1ccccc1)N1CCn2c1nc1ccccc12,–,inactive: 3.66%
CCN(CC)c1ccc(/C=N/NC(=S)NCc2ccco2)cc1,"inconclusive: 23.1 µM [cytotoxic, single point]",–
